# The inconclusive results got no clear call from the source; some entries with a clear call stand among them for comparison. The source made the active and inactive calls.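 How the source made its calls: active means compound whose fitted half-maximal dose for signal loss lies within twice the top dose in every replicate test; inconclusive means tests disagree, or flat partial signal loss or poor fit; inactive means every test inactive, flat, rising or too weak.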
# By UniProt entry, the sequences of proteins in these tests, tags left out. Where a name states a change or a piece, a line headed by the entry shows the natural chain unless it says otherwise.
# UniProt Q9NZ08: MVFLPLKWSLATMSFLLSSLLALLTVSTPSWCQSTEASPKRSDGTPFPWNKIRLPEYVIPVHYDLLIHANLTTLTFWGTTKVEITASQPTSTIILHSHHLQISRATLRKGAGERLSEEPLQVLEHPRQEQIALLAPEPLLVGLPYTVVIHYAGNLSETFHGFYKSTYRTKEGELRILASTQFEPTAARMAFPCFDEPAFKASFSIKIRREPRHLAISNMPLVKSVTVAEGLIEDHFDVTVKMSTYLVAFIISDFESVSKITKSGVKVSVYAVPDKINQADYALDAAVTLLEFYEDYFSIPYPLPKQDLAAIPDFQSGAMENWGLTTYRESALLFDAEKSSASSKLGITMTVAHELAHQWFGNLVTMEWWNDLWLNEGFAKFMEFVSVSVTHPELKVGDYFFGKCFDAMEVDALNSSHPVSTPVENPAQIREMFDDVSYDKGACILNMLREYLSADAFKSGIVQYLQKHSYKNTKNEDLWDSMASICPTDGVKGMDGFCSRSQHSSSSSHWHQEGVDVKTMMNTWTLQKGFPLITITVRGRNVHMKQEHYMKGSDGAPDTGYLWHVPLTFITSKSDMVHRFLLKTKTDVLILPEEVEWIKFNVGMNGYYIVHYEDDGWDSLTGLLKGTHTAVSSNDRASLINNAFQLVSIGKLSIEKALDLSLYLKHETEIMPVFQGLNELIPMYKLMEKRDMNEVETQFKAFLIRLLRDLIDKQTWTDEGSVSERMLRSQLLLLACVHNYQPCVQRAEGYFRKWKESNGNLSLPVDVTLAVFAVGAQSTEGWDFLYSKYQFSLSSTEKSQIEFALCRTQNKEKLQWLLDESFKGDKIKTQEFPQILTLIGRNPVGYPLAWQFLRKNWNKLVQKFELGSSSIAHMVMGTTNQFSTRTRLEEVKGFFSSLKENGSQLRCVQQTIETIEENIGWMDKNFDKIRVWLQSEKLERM
# Molecular target: Endoplasmic reticulum aminopeptidase 1 (Homo sapiens) (UniProt Q9NZ08)
# Test: blocking ERAP1 cleavage of leucine-AMC substrate – biochemical, fluorescence plate reader, dry powder, dose response (AID 1117292)
# Conditions: purified ERAP1, Leu-AMC fluorescence, 60 min; at 50 µM (top of the series)
row,Structure (SMILES),"activity change, negative = inhibition"
1,CC(=O)N1CCN(C(=O)C2(NC(=O)NC(C)(C)C)CCCCC2)CC1,inactive: -0.89%
2,O=S(=O)(Nc1cc(C(F)(F)F)ccc1N1CCCCC1)c1ccc(F)cc1,inactive: 17.3%
3,CC(=O)N1CCN(C(=O)C2(NC(=O)Nc3ccccc3)CCCC2)CC1,inactive: 11.7%
4,Cc1ccc(NC(=O)NC2(C(=O)N3CCOCC3)CCCCC2)cc1,inconclusive: -17.8%
5,CC(=O)N1CCN(C(=O)C(C)(C)NC(=O)Nc2ccc(C)cc2)CC1,inconclusive: -31%
6,COc1cccc(NC(=O)NC2(C(=O)N3CCN(C(C)=O)CC3)CCCCC2)c1,inactive: 14.7%

# Reference: PubChem BioAssay AID1117292 (Broad Institute, 2014)
